Measurements reported in the supplement of paper PMC9233669.
Variants at the background level are over-represented here.

Columns and labels:
biotinyl-Ile-oxazolone = assay: self-aminoacylation, catalytic enhancement (BIO) (fold over background); higher = more active; k-Seq, kA / k0A0; sequences stand for … in GGGAAUGGAUCCACAUCUACGAAUUC…UUCACUGCAGACUUGACGAAGCUG
Outline: (§1)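 Catalytic enhancement equals the median kA over the uncatalyzed rate, the latter read from the low-activity peak of a bimodal Gaussian fit. Values of kA came from fitting each sequence's fraction reacted to a pseudo-first-order model, with 1000 bootstraps. Reacted RNA was captured with streptavidin and quantified by triplicate qPCR and Illumina sequencing after 90 minutes at room temperature with 2–1250 μM biotinyl-aminoacyl-oxazolone and 0.43 μM mutagenized RNA pools bearing a 21-nt variable region.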

biotinyl-Leu-oxazolone = assay: self-aminoacylation, catalytic enhancement (BLO) (fold over background); higher = more active; k-Seq, kA / k0A0; sequences stand for … in GGGAAUGGAUCCACAUCUACGAAUUC…UUCACUGCAGACUUGACGAAGCUG
Outline: as §1

biotinyl-Phe-oxazolone = assay: self-aminoacylation, catalytic enhancement (BFO) (fold over background); higher = more active; k-Seq, kA / k0A0; sequences stand for … in GGGAAUGGAUCCACAUCUACGAAUUC…UUCACUGCAGACUUGACGAAGCUG
Outline: as §1

biotinyl-Met-oxazolone = assay: self-aminoacylation, catalytic enhancement (BMO) (fold over background); higher = more active; k-Seq, kA / k0A0; sequences stand for … in GGGAAUGGAUCCACAUCUACGAAUUC…UUCACUGCAGACUUGACGAAGCUG
Outline: as §1

biotinyl-Val-oxazolone = assay: self-aminoacylation, catalytic enhancement (BVO) (fold over background); higher = more active; k-Seq, kA / k0A0; sequences stand for … in GGGAAUGGAUCCACAUCUACGAAUUC…UUCACUGCAGACUUGACGAAGCUG
Outline: as §1

biotinyl-Trp-oxazolone = assay: self-aminoacylation, catalytic enhancement (BWO) (fold over background); higher = more active; k-Seq, kA / k0A0; sequences stand for … in GGGAAUGGAUCCACAUCUACGAAUUC…UUCACUGCAGACUUGACGAAGCUG
Outline: as §1

Row | Sequence | self-aminoacylation (biotinyl-Ile-oxazolone) | self-aminoacylation (biotinyl-Leu-oxazolone) | self-aminoacylation (biotinyl-Phe-oxazolone) | self-aminoacylation (biotinyl-Met-oxazolone) | self-aminoacylation (biotinyl-Val-oxazolone) | self-aminoacylation (biotinyl-Trp-oxazolone)
1 | AAGUUUGCUAAUAGUGCCAAG [Fam3.1 aminoacylation ribozyme variant] | 0.916 | 0.727 | 1.04 | 1.18 | 0.799 | 0.774
2 | AAGUUUGCUAAUAGUGUCAAG [Fam3.1 aminoacylation ribozyme variant] | 0.832 | 0.665 | 1.03 | 0.746 | 0.783 | 0.941
3 | AAGUUUGCUAAUAGUUCCAAG [Fam3.1 aminoacylation ribozyme variant] | 1.47 | 1.28 | 1.72 | 1.48 | 1.53 | 1.19
4 | AAGUUUGCUAAUAGUUGAAAG [Fam3.1 aminoacylation ribozyme variant] | 1.35 | 1.15 | 1.58 | 1.31 | 1.14 | 1.35
5 | AAGUUUGCUAAUAGUUGCAAC [Fam3.1 aminoacylation ribozyme variant] | 1.06 | 0.853 | 0.862 | 0.933 | 0.83 | 0.841
6 | AAGUUUGCUAAUAGUUGCCAG [Fam3.1 aminoacylation ribozyme variant] | 1.09 | 0.92 | 1.29 | 0.937 | 0.841 | 1.02
7 | AAGUUUGCUAAUAGUUGCUAG [Fam3.1 aminoacylation ribozyme variant] | 0.851 | 0.785 | 1.38 | 0.984 | 0.801 | 0.567
8 | AAGUUUGCUAAUAUUCGCAAG [Fam3.1 aminoacylation ribozyme variant] | 0.945 | 0.844 | 1.01 | 0.89 | 0.861 | 0.933
9 | AAGUUUGCUAAUCGUCGCAAA [Fam3.1 aminoacylation ribozyme variant] | 1.15 | 1.02 | 1.38 | 1.22 | 1.05 | 1.47
10 | AAGUUUGCUAAUCGUCGCAGG [Fam3.1 aminoacylation ribozyme variant] | 0.995 | 1.18 | 1.66 | 1.3 | 1.06 | 0.759
11 | AAGUUUGCUAAUCGUCUCAAG [Fam3.1 aminoacylation ribozyme variant] | 0.934 | 0.733 | 1.35 | 0.743 | 0.939 | 1.05
12 | AAGUUUGCUAAUGGUCACAAG [Fam3.1 aminoacylation ribozyme variant] | 1.04 | 0.864 | 0.977 | 0.742 | 0.817 | 1.21
13 | AAGUUUGCUAAUGGUCUCAAG [Fam3.1 aminoacylation ribozyme variant] | 0.718 | 0.763 | 0.986 | 0.797 | 0.825 | 0.883
14 | AAGUUUGCUAAUUGUCGAAAG [Fam3.1 aminoacylation ribozyme variant] | 0.872 | 1.05 | 1.08 | 0.93 | 0.872 | 0.907
15 | AAGUUUGCUAAUUGUCGCAAC [Fam3.1 aminoacylation ribozyme variant] | 1.31 | 1.04 | 1.38 | 1.49 | 1.45 | 2.13
16 | AAGUUUGCUACUAGUCGCAAA [Fam3.1 aminoacylation ribozyme variant] | 1.21 | 0.969 | 1.53 | 1.19 | 1.28 | 1.18
17 | AAGUUUGCUACUAGUCGCGAG [Fam3.1 aminoacylation ribozyme variant] | 1.49 | 1.49 | 1.25 | 1.48 | 1.42 | 1.35
18 | AAGUUUGCUACUAGUUGCAAG [Fam3.1 aminoacylation ribozyme variant] | 0.91 | 0.738 | 0.871 | 0.909 | 0.685 | 0.908
19 | AAGUUUGCUACUGGUCGCAAG [Fam3.1 aminoacylation ribozyme variant] | 0.674 | 0.632 | 0.917 | 0.75 | 0.735 | 1.18
20 | AAGUUUGCUAGUAGGCGCAAG [Fam3.1 aminoacylation ribozyme variant] | 0.793 | 0.838 | 0.91 | 0.634 | 0.846 | 0.852
21 | AAGUUUGCUAGUAGUCGAAAG [Fam3.1 aminoacylation ribozyme variant] | 0.979 | 0.989 | 1.02 | 0.742 | 0.776 | 0.863
22 | AAGUUUGCUAGUAGUCGGAAG [Fam3.1 aminoacylation ribozyme variant] | 0.786 | 1.23 | 1.32 | 0.942 | 0.826 | 0.725
23 | AAGUUUGCUAUUAGUCGCAAC [Fam3.1 aminoacylation ribozyme variant] | 1.16 | 1.14 | 0.969 | 0.848 | 1.04 | 0.879
